Literature values, collected in patent US9745348B2 (The University of Manchester, priority 2011, dated 2017).
Some entries share one result that the patent states for a list of compounds.

Tested on: bacteria
Conditions: literature values cited for comparison; cited from earlier work

Row | Compound | MICs [µM]
1 | CC1(C)S[C@@H]2[C@H](NC(=O)[C@H](N)c3ccccc3)C(=O)N2[C@H]1C(=O)O [Ampicillin, ampicillin, reference compound] | 2 to 10
2 | CC[C@H](C)[C@H](NC(=O)CN)C(=O)NCC(=O)N[C@@H](C)C(=O)N[C@H](C(=O)N[C@@H](CC(C)C)C(=O)N[C@@H](CCCCN)C(=O)N[C@H](C(=O)N[C@@H](CC(C)C)C(=O)N[C@H](C(=O)N[C@H](C(=O)NCC(=O)N[C@@H](CC(C)C)C(=O)N1CCC[C@H]1C(=O)N[C@@H](C)C(=O)N[C@@H](CC(C)C)C(=O)N[C@H](C(=O)N[C@@H](CO)C(=O)N[C@@H](Cc1c[nH]c2ccccc12)C(=O)N[C@H](C(=O)N[C@@H](CCCCN)C(=O)N[C@@H](CCCNC(=N)N)C(=O)N[C@@H](CCCCN)C(=O)N[C@@H](CCCNC(=N)N)C(=O)N[C@@H](CCC(N)=O)C(=O)N[C@@H](CCC(N)=O)C(N)=O)[C@@H](C)CC)[C@@H](C)CC)[C@@H](C)O)[C@@H](C)O)C(C)C)C(C)C [melittin] | 2 to 10
